In patent publication US20150030595A1:
No constants are given. Whether binding was seen depends on the method and setting.

Target: α-tubulin
Assay: immunoprecipitation from C2C12 lysate with B09, western blot for α-tubulin (negative control)

binding: no binding
B1: human antibody B09 (full-length IgG) (antibody, V domains shown)
VH: QMQLVESGGRLVRPGGSLRLSCAASGFPFTSYAMNWVRQTPGKGLEWVSTITATSGKTYYADSVKGRFTISRDNSRNTLFLQMNSLRAEDTAVYYCVRGESCSGGACSDFDYWGQGALVTVSS
VL: QLVLTQPASVSGSPGQSVTISCTGTSSDIGRYNRVSWYQHHPGKAPKLILNDVTTRPSGFSNRFSGSKSGNTASLTISGLQAEDEADYSCGSYAGSYTYVFGTGTKVTVL
